No constants are given. Whether binding was seen depends on the method and setting. In cells and extracts the contact can be indirect. Some binding calls cover weakened binding; strength is not graded here. Sequences can lack the tags named with a protein.
Molecular target: T1, Peanut agglutinin (PNA), agarose-conjugated (Arachis hypogaea) (UniProt P02872)
T1 sequence: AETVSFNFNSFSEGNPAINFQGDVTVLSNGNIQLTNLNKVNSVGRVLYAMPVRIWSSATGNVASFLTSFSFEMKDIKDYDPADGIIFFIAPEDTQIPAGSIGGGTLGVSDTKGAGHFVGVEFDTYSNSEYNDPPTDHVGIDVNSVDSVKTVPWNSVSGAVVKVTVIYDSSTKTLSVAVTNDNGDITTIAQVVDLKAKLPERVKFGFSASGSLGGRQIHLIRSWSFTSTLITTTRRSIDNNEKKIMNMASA
Assay: pull-down; HUVEC lysate (1% Triton X-100 in PBS) with PNA-agarose beads at 4°C overnight; beads then incubated with PBS, 5U PNGase-F or 10mM O-glycanase at 37°C overnight, washed, bound proteins analysed by MCAM immunoblot; only the target purified

Sequences of proteins named here, by UniProt entry; tags and fusion partners are left off. Residues count along the entry.
UniProt P43121, residues 24-646: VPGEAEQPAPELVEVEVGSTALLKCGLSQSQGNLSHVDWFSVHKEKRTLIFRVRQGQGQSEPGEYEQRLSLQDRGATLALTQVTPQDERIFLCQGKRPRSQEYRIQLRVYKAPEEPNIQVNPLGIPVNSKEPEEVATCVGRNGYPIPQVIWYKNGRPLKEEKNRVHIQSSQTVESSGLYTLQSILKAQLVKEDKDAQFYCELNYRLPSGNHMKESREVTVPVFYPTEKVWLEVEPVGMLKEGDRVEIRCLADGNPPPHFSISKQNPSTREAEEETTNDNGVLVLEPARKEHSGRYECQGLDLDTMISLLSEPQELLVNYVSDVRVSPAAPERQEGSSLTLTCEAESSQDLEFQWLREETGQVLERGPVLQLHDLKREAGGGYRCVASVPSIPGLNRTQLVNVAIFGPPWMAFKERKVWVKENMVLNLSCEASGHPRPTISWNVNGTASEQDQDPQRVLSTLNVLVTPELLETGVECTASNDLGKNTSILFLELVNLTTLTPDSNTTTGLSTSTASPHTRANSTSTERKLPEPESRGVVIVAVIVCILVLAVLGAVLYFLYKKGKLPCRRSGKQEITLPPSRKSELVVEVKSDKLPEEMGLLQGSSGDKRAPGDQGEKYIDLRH

| Substance | binding |
| --- | --- |
| MCAM (CD146) treated with O-glycanase (from UniProt P43121 24-646) (receptor) | binds |
| MCAM (CD146), melanoma cell adhesion molecule (from UniProt P43121 24-646) (receptor) | binds |
